Laboratory results taken from patent US10434142B2, “Compositions and methods of improved wound healing” (Chan Soon-Shiong Nanthealth Foundation, priority 2013, dated 2019).
For some assays here: At least one structure is not confirmed: it was looked up by name or label, or the drawing left a doubt. Some entries share one result that the patent states for a list of compounds.

Tests used:
[1] = system: human THP-1 promonocytic leukemia cell line; assay: IL-8 production / cytokine release from THP-1 cells, TLR2 ligand with or without calcium flux agonist; type: cell-based; conditions: TLR2 ligand (Pam2CYS) plus suboptimal dose of agonist: 20 nM thapsigargin, 316 nM A23187, 1 μM ionomycin
Procedure: (§1) For example, human promonocytic THP-1 cells were incubated in the presence or absence of a suboptimal dose of the TLR2 ligand Pam2CSK4 and compared to similarly treated cells which also received suboptimal doses of ionophore (here: A23187 and ionomycin). […] In another example, KB-LUC THP-1 cells (a THP-1-derived transfectant line harboring an NF-κB-driven luciferase expression cassette) were cultivated in the presence or absence of a suboptimal dose of the TLR2 ligand Pam2CSK4 and compared to similarly treated cells that also received suboptimal doses of various SERCA inhibitors.
Here, the ionophores A23187 and ionomycin, as well as the SERCA inhibitor thapsigargin synergize with the TLR2 ligand (Pam2CYS) in the activation of cytokine release from the human THP-1 promonocytic leukemia cell line. It should be especially noted that while the TLR2 ligand alone provided for about 5 ng/ml IL-8 response, addition of a suboptimal dose of the calcium flux agonists (e.g. 20 nM for thapsigargin, 316 nM for A23187, and 1 μM for ionomycin) produced more than 10-fold quantities of IL-8 production in the cells.

TLR2 = assay: IL-8 production, calcium flux agonist plus TLR2 ligand (FIGS. 2A-2E); type: cell-based; conditions: suboptimal doses: 20 nM thapsigargin, 316 nM A23187, 1 μM ionomycin, 10 μM cyclopiazonic acid, 31.6 μM DBHQ
Procedure: (§2) To investigate if that observation was also true for other pattern recognition receptors, and especially for TLR and NOD receptors and other ligands, the inventors tested numerous TLR and NOD receptors and various ligands.
(§3) The doses used in this experiment were 20 nM for thapsigargin, 316 nM for A23187, 1 μM for ionomycin, 10 μM for cyclopiazonic acid, and 31.6 μM for DBHQ.
(§4) Thus, a clear pattern of adjuvant activity of calcium flux agonists on the immune response, and especially on IL-8 production and NF-κB signaling is evident where the immune response is associated with a TLR- or NOD-mediated event.

TLR5 = assay: IL-8 production, calcium flux agonist plus TLR5 ligand (FIGS. 2A-2E); type: cell-based; conditions: suboptimal doses: 20 nM thapsigargin, 316 nM A23187, 1 μM ionomycin, 10 μM cyclopiazonic acid, 31.6 μM DBHQ
Procedure: as §2, §3, §4

KB-LUC THP-1 cells = assay: NF-κB-driven luciferase in KB-LUC THP-1 cells, TLR2 ligand Pam2CSK4 with or without SERCA inhibitor; type: cell-based, human; conditions: suboptimal dose of Pam2CSK4 plus suboptimal dose of SERCA inhibitor; beyond cumulative individual responses
Procedure: as §1

TLR4 = assay: IL-8 production, calcium flux agonist plus TLR4 ligand (FIGS. 2A-2E); type: cell-based; conditions: suboptimal doses: 20 nM thapsigargin, 316 nM A23187, 1 μM ionomycin, 10 μM cyclopiazonic acid, 31.6 μM DBHQ
Procedure: as §2, §3, §4

NOD1 = assay: IL-8 production, calcium flux agonist plus NOD1 ligand (FIGS. 2A-2E); type: cell-based; conditions: suboptimal doses: 20 nM thapsigargin, 316 nM A23187, 1 μM ionomycin, 10 μM cyclopiazonic acid, 31.6 μM DBHQ
Procedure: as §2, §3, §4

NOD2 = assay: IL-8 production, calcium flux agonist plus NOD2 ligand (FIGS. 2A-2E); type: cell-based; conditions: suboptimal doses: 20 nM thapsigargin, 316 nM A23187, 1 μM ionomycin, 10 μM cyclopiazonic acid, 31.6 μM DBHQ
Procedure: as §2, §3, §4

SMILES | quantities of IL-8 production relative to TLR2 ligand alone [1] | synergistic effect to augment cellular response (IL-8 production) for TLR2 (TLR2) | synergistic effect to augment cellular response (IL-8 production) for TLR5 (TLR5) | amount of luciferase produced (NF-κB-driven), synergy with TLR2 ligand (KB-LUC THP-1 cells) | synergistic effect to augment cellular response (IL-8 production) for TLR4 (TLR4) | synergistic effect to augment cellular response (IL-8 production) for NOD1 (NOD1) | synergistic effect to augment cellular response (IL-8 production) for NOD2 (NOD2)
CNc1ccc2oc(C[C@H]3O[C@@]4(CC[C@H]3C)O[C@H]([C@H](C)C(=O)c3ccc[nH]3)[C@H](C)C[C@H]4C)nc2c1C(=O)O [A23187] | more than 10 fold |  |  |  |  |  | 
CC(=O)C1=C(O)[C@@H]2[C@H]3c4c[nH]c5cccc(c45)C[C@H]3C(C)(C)N2C1=O [cyclopiazonic acid] |  | synergistic effect | synergistic effect | significantly increased | synergistic effect | synergistic effect | synergistic effect
C[C@H](CCC(=O)O)C[C@H](C)C[C@H](C)C(=O)/C=C(\O)[C@H](C)C[C@H](C)C/C=C/[C@@H](C)[C@@H](O)[C@@H](C)[C@@H](O)C[C@@H]1CC[C@@](C)([C@H]2CC[C@@](C)([C@@H](C)O)O2)O1 [ionomycin] | more than 10 fold |  |  |  |  |  | 
